Test results as given in PubChem BioAssay AID330 (DTP/NCI, 2004).
The list shows only some results of the screen, not a fair sample: it gathers tests that were run many times, whatever their T/C, doses with no T/C, and many T/C values between a quarter and a half above the control. Other doses and runs of a compound stand elsewhere. T/C: endpoint of the treated group in % of that of the vehicle group. Some entries give survivors of the animals treated and no T/C: the source holds a T/C of zero for them, seemingly a mark for toxic or unscored doses. Some survivor counts are full or nearly so, which does not show that the dose was tolerated: the source hardly ever lists a survival T/C far under the control, and the zero likely stands for such cases as well. Counts of survivors are from the toxicity check (mostly the fifth day) where no day follows; animals may have died later. Schedule codes are those of the source, read here as Q, the interval in days (D) or hours (H), X, the number of doses. Some entries hold several experiments; the values are given in rising order. For survival time, this PubChem deposit counts one and a half times the control or more as active, and values a quarter to a half above the control carry no call in these data; other NCI protocols may use other cut-offs.

Tested on: P388 leukemia ip, CD2F1 mice, survival T/C
Experiment: NCI In Vivo Anticancer Drug Screen. Data for tumor model P388 Leukemia (intraperitoneal) in CD2F1 (CDF1) mice
Conditions: T/C endpoint: median survival time, higher T/C = longer survival
[1] = dose: 100.0 mg/kg/injection, schedule: Q01DX005 (ip), vehicle: saline with Tween-80
[2] = dose: 200.0 mg/kg/injection, schedule: Q01DX005 (ip), vehicle: saline with Tween-80
[3] = dose: 200.0 mg/kg/injection, schedule: Q01DX005 (ip), vehicle: Klucel (hydroxypropylcellulose) (HPC)
[4] = dose: 120.0 mg/kg/injection, schedule: Q01DX005 (ip), vehicle: saline with Tween-80
[5] = dose: 50.0 mg/kg/injection, schedule: Q01DX005 (ip), vehicle: saline
[6] = dose: 100.0 mg/kg/injection, schedule: Q01DX005 (ip), vehicle: saline
[7] = dose: 200.0 mg/kg/injection, schedule: Q01DX005 (ip), vehicle: saline
[8] = dose: 0.5 mg/kg/injection, schedule: Q01DX009 (ip), vehicle: saline with Tween-80
[9] = dose: 2.5 mg/kg/injection, schedule: Q01DX009 (ip), vehicle: saline
[10] = dose: 5.0 mg/kg/injection, schedule: Q01DX009 (ip), vehicle: saline
[11] = dose: 240.0 mg/kg/injection, schedule: Q01DX005 (ip), vehicle: saline

CCC(=O)c1cc2ccccc2c2ccccc12
survivor count [1]: 0 of 5 | survivor count [2]: 0 of 5

CS(=O)(=O)CS(=O)(=O)OCCBr
T/C (dose: 25.0 mg/kg/injection, schedule: Q01DX005 (ip), vehicle: saline with Tween-80): 136 % of control | T/C (dose: 50.0 mg/kg/injection, schedule: Q01DX005 (ip), vehicle: saline with Tween-80): 138 % of control | survivor count [1]: 4 of 6 | survivor count [2]: 1 of 6

C/C(Cl)=C\C(=O)c1c(C)[nH]n(-c2ccccc2)c1=O
survivor count [3]: 0 of 6

O=C1Cc2ccccc2CC1CC1Cc2ccccc2CC1=O (centres undefined)
survivor count (dose: 100.0 mg/kg/injection, schedule: Q01DX009 (ip), vehicle: Klucel (hydroxypropylcellulose) (HPC)): 6 of 6

O=C1C=CC(=Nc2ccc(N(CCCl)CCCl)cc2)c2ccccc21
T/C (dose: 12.5 mg/kg/injection, schedule: Q01DX009 (ip), vehicle: Klucel (hydroxypropylcellulose) (HPC)): 131 % of control | T/C (dose: 25.0 mg/kg/injection, schedule: Q01DX009 (ip), vehicle: Klucel (hydroxypropylcellulose) (HPC)): 128 % of control | T/C (dose: 50.0 mg/kg/injection, schedule: Q01DX009 (ip), vehicle: Klucel (hydroxypropylcellulose) (HPC)): 140 % of control | survivor count (dose: 200.0 mg/kg/injection, schedule: Q01DX009 (ip), vehicle: Klucel (hydroxypropylcellulose) (HPC)): 5 of 6

CNC(=O)N(C)C1=NC(O)(c2ccccc2)C(c2ccccc2)=N1 (centres undefined)
survivor count (dose: 200.0 mg/kg/injection, schedule: Q04DX002 (ip), vehicle: saline with Tween-80): 6 of 6 | survivor count (dose: 400.0 mg/kg/injection, schedule: Q04DX002 (ip), vehicle: saline with Tween-80): 5 of 6

O=C(c1ccccc1)c1ccccc1NCC(O)COc1ccc(Cl)cc1C(=O)c1ccccc1 (centres undefined)
survivor count [4]: 6 of 6

COc1cc(NCC(C)(O)CN2CCCC(C)C2C)c2ncccc2c1 (centres undefined)
survivor count [5]: 3 of 5 | survivor count [6]: 0 of 5 | survivor count [7]: 0 of 5

COc1cc2c(c(OC)c1OC)-c1ccc(OC)c(=O)cc1[C@@H](NC(=O)CCl)CC2
T/C (dose: 0.03 mg/kg/injection, schedule: Q01DX009 (ip), vehicle: saline with Tween-80): 137 % of control | T/C (dose: 0.06 mg/kg/injection, schedule: Q01DX009 (ip), vehicle: saline with Tween-80): 130, 141, 146 % of control | T/C (dose: 0.12 mg/kg/injection, schedule: Q01DX009 (ip), vehicle: Klucel (hydroxypropylcellulose) (HPC)): 126 % of control | T/C (dose: 0.13 mg/kg/injection, schedule: Q01DX009 (ip), vehicle: saline with Tween-80): 147 % of control | survivor count (dose: 0.25 mg/kg/injection, schedule: Q01DX009 (ip), vehicle: saline with Tween-80): 6 of 6 | T/C (dose: 0.5 mg/kg/injection, schedule: Q01DX009 (ip), vehicle: Klucel (hydroxypropylcellulose) (HPC)): 132 % of control | T/C [8]: 144 % of control | survivor count [8]: 6 of 6 | survivor count (dose: 1.0 mg/kg/injection, schedule: Q01DX009 (ip), vehicle: Klucel (hydroxypropylcellulose) (HPC)): 5 of 6 | survivor count (dose: 1.0 mg/kg/injection, schedule: Q01DX009 (ip), vehicle: saline with Tween-80): 0 of 6 and 5 of 6 | survivor count (dose: 1.25 mg/kg/injection, schedule: Q01DX009 (ip), vehicle: saline): 3 of 6 | survivor count [9]: 1 of 6 | survivor count [10]: 0 of 6

OCCN1CCN(c2c3ccccc3nc3ccccc23)CC1
survivor count (dose: 100.0 mg/kg/injection, schedule: Q04DX003 (ip), vehicle: Klucel (hydroxypropylcellulose) (HPC)): 3 of 6 | survivor count (dose: 100.0 mg/kg/injection, schedule: Q04DX003 (ip), vehicle: saline): 4 of 6 | survivor count (dose: 200.0 mg/kg/injection, schedule: Q04DX003 (ip), vehicle: Klucel (hydroxypropylcellulose) (HPC)): 1 of 6 | survivor count (dose: 400.0 mg/kg/injection, schedule: Q04DX003 (ip), vehicle: Klucel (hydroxypropylcellulose) (HPC)): 0 of 6

CC(=N/N=C(N)N)/C(C)=N/N=C(N)N
survivor count [2]: 0 of 6

Cc1cc(C)n(C2=NCCN2)n1
survivor count [11]: 0 of 6

C[N+](C)([O-])CCCNc1c2ccccc2nc2cccc([N+](=O)[O-])c12
survivor count (dose: 6.25 mg/kg/injection, schedule: Q01DX009 (ip), vehicle: saline): 6 of 6 | survivor count (dose: 12.5 mg/kg/injection, schedule: Q01DX009 (ip), vehicle: saline): 0 of 6 | survivor count (dose: 50.0 mg/kg/injection, schedule: Q01DX009 (ip), vehicle: saline): 0 of 6 | survivor count (dose: 100.0 mg/kg/injection, schedule: Q01DX009 (ip), vehicle: saline): 0 of 6 | survivor count (dose: 200.0 mg/kg/injection, schedule: Q01DX009 (ip), vehicle: saline): 0 of 6

CCOC(=O)c1ccc(NC(=O)Nc2nc(C)cs2)cc1
T/C (dose: 100.0 mg/kg/injection, schedule: Q01DX009 (ip), vehicle: distilled water + Tween-80): 127 % of control | T/C (dose: 200.0 mg/kg/injection, schedule: Q01DX009 (ip), vehicle: distilled water + Tween-80): 138 and 139 % of control | survivor count (dose: 400.0 mg/kg/injection, schedule: Q01DX009 (ip), vehicle: distilled water + Tween-80): 0 of 6

CCC(=O)OCC1OC(OC2c3cc4c(cc3C(c3cc(OC)c(OC)c(OC)c3)C3C(=O)OCC23)OCO4)C(OC(=O)CC)C(OC(=O)CC)C1OC(=O)CC (centres undefined)
survivor count [1]: 3 of 5 | survivor count [2]: 0 of 5

CCC1(O)C(=O)OCc2c1cc1n(c2=O)Cc2c-1nc1ccccc1c2OC (centres undefined)
survivor count (dose: 50.0 mg/kg/injection, schedule: Q01DX009 (ip), vehicle: suspension in saline): 6 of 6 | survivor count (dose: 100.0 mg/kg/injection, schedule: Q01DX009 (ip), vehicle: suspension in saline): 5 of 6 | survivor count (dose: 200.0 mg/kg/injection, schedule: Q01DX009 (ip), vehicle: suspension in saline): 3 of 6

COC(=O)C1CC2C3C=CC(C4C(=O)NC(=O)C34)C12OC (centres undefined)
survivor count (dose: 400.0 mg/kg/injection, schedule: Q01DX001 (ip), vehicle: saline with Tween-80): 6 of 6

CC1CCC2(OC1)OC1CC3C4CC=C5CC(OC6OC(CO)C(OC7OC(C)C(OC8OC(C)C(O)C(O)C8O)C(O)C7O)C(O)C6OC6OC(C)C(O)C(O)C6O)CCC5(C)C4CCC3(C)C1C2C (centres undefined)
survivor count [9]: 4 of 4 | survivor count [10]: 5 of 6 | survivor count (dose: 10.0 mg/kg/injection, schedule: Q01DX009 (ip), vehicle: saline): 6 of 6 | survivor count (dose: 20.0 mg/kg/injection, schedule: Q01DX009 (ip), vehicle: saline): 3 of 6

CN(C)CC#CCCCS(=O)(=O)c1ccccc1
survivor count [11]: 0 of 6

CN1C(=O)CC2(C)C1=CCc1scnc12 (centres undefined)
survivor count (dose: 60.0 mg/kg/injection, schedule: Q01DX005 (ip), vehicle: saline with Tween-80): 3 of 6 | survivor count [4]: 1 of 6 | survivor count (dose: 240.0 mg/kg/injection, schedule: Q01DX005 (ip), vehicle: saline with Tween-80): 0 of 6

S=C(NCCc1ccccc1)N/N=C/c1ccc(Cl)cc1
survivor count [3]: 6 of 6

CC(C)CC(=O)CC(O)(C(F)(F)F)C(F)(F)F
survivor count (dose: 400.0 mg/kg/injection, schedule: Q01DX009 (ip), vehicle: saline with Tween-80): 2 of 6

CS/C(=C/c1ccc2ccccc2[n+]1C)N1CCN(C)CC1
survivor count [5]: 3 of 6 | survivor count [6]: 0 of 6 | survivor count [7]: 0 of 6
